Data: paper doi:10.1101/2022.10.20.513059
Results are given in words; binding and its absence hold for the method and conditions named. In cells and extracts the contact can be indirect. Binding can be weak; no strength is given.

Biological target: RPTOR1-HA (L. major) (UniProt Q4QA34)
Assay: co-IP

TOR1-Myc (LmxM.36.6320, N-terminally endogenously myc-tagged) (from UniProt E9AU66)
binding: binds
